Assay results from doi:10.1101/2022.06.07.495180.

T1: SLP76 (human (endogenous in primary T cells)) (UniProt Q13094)
T1 sequence: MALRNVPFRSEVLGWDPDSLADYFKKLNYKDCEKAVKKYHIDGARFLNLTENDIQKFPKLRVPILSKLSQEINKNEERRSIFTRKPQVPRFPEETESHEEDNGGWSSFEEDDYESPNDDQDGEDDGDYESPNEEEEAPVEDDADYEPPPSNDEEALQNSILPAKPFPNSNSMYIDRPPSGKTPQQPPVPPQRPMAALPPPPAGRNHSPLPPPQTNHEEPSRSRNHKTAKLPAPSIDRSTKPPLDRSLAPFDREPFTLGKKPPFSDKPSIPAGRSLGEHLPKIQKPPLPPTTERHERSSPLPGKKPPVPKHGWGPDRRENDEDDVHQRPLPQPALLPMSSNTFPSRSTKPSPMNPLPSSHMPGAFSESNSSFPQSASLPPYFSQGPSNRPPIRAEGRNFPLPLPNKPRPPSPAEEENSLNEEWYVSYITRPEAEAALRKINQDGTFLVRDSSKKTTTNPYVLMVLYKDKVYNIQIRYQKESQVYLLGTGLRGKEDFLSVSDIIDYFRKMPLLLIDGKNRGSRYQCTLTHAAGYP


What was measured:
[1] = biological target: T1, SLP76 (human (endogenous in primary T cells)); assay: co-IP
[2] = biological target: PI3K (human (endogenous in primary T cells)); assay: co-IP

binding [1] | binding [2] | Molecule
 | binds | TRAF1 (protein, UniProt Q13077 1-416) MASSSGSSPRPAPDENEFPFGCPPTVCQDPKEPRALCCAGCLSENPRNGEDQICPKCRGEDLQSISPGSRLRTQEKAHPEVAEAGIGCPFAGVGCSFKGSPQSVQEHEVTSQTSHLNLLLGFMKQWKARLGCGLESGPMALEQNLSDLQLQAAVEVAGDLEVDCYRAPCSESQEELALQHFMKEKLLAELEGKLRVFENIVAVLNKEVEASHLALATSIHQSQLDRERILSLEQRVVELQQTLAQKDQALGKLEQSLRLMEEASFDGTFLWKITNVTRRCHESACGRTVSLFSPAFYTAKYGYKLCLRLYLNGDGTGKRTHLSLFIVIMRGEYDALLPWPFRNKVTFMLLDQNNREHAIDAFRPDLSSASFQRPQSETNVASGCPLFFPLSKLQSPKHAYVKDDTMFLKCIVETST
 | binds | SLP76 (protein, UniProt Q13094 1-533) MALRNVPFRSEVLGWDPDSLADYFKKLNYKDCEKAVKKYHIDGARFLNLTENDIQKFPKLRVPILSKLSQEINKNEERRSIFTRKPQVPRFPEETESHEEDNGGWSSFEEDDYESPNDDQDGEDDGDYESPNEEEEAPVEDDADYEPPPSNDEEALQNSILPAKPFPNSNSMYIDRPPSGKTPQQPPVPPQRPMAALPPPPAGRNHSPLPPPQTNHEEPSRSRNHKTAKLPAPSIDRSTKPPLDRSLAPFDREPFTLGKKPPFSDKPSIPAGRSLGEHLPKIQKPPLPPTTERHERSSPLPGKKPPVPKHGWGPDRRENDEDDVHQRPLPQPALLPMSSNTFPSRSTKPSPMNPLPSSHMPGAFSESNSSFPQSASLPPYFSQGPSNRPPIRAEGRNFPLPLPNKPRPPSPAEEENSLNEEWYVSYITRPEAEAALRKINQDGTFLVRDSSKKTTTNPYVLMVLYKDKVYNIQIRYQKESQVYLLGTGLRGKEDFLSVSDIIDYFRKMPLLLIDGKNRGSRYQCTLTHAAGYP

The next lines start with the molecule.

Molecule | binding [1] | binding [2]
PLCg (human (endogenous in primary T cells)) | binds | 
LAT (protein, UniProt O43561 1-262) MEEAILVPCVLGLLLLPILAMLMALCVHCHRLPGSYDSTSSDSLYPRGIQFKRPHTVAPWPPAYPPVTSYPPLSQPDLLPIPRSPQPLGGSHRTPSSRRDSDGANSVASYENEGASGIRGAQAGWGVWGPSWTRLTPVSLPPEPACEDADEDEDDYHNPGYLVVLPDSTPATSTAAPSAPALSTPGIRDSAFSMESIDDYVNVPESGESAEASLDGSREYVNVSQELHPGAAKTEPAALSSQEAEEVEEEGAPDYENLQELN |  | binds

Results are given in words; binding and its absence hold for the method and conditions named. Binding seen in cells or lysates may run through a third protein. Binding can be weak; no strength is given.
